Results are given in words; binding and its absence hold for the method and conditions named.
Target: Avi-UPF2-MIF4GIII (biotinylated) (UniProt Q9HAU5)
Assay: SPR

The chains behind the UniProt entries cited, without tags or fusion partners. Residues count along the entry.
UniProt Q9HAU5, residues 761-1054: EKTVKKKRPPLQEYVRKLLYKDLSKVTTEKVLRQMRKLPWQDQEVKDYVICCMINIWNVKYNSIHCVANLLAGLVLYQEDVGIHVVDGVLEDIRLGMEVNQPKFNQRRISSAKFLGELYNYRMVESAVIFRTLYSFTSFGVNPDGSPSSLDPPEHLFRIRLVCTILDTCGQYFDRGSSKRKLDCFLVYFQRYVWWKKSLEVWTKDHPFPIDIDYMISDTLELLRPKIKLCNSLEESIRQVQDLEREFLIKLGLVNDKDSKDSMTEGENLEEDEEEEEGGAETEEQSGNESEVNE

binding: no binding
B1: UPF3A-58-173-Iso2 (domain or fragment, UniProt Q9H1J1-2 58-173)
chain: KPREEKRTALSKVVIRRLPPGLTKEQLEEQLRPLPAHDYFEFFAADLSLYPHLYSRAYINFRNPDDILLFRDRFDGYIFLDSKDPEYKKFLETYCVEEEKTSANPETLLGEMEAKT
